Experimental data: patent publication US20220395441A1, “Methods for Improving Barrier Integrity of Gingival Tissue” (Colgate-Palmolive Company, priority 2019, published 2022)
For at least one compound, name, drawing or mass did not settle the structure.

System: junction proteins (PKP-2, CDH-1, TJP1, CLDN1)
Test: m-RNA of junction proteins in cells after exposure to curcuminoid
Format: cell-based
Conditions: m-RNA of PKP-2, CDH-1, TJP1, CLDN1; FIG. 1A / FIG. 3A

## COc1cc(/C=C/C(=O)CC(=O)/C=C/c2ccc(O)c(OC)c2)ccc1O [yellow curcumin, Curcumin (diferuloylmethane)]
  junctional protein expression (m-RNA): enhance protein expression
